Laboratory results: PubChem BioAssay AID504764 (Drosophila RNAi Screening Center, 2011)
The deposit covers about 22,000 reagents; this is an unselected part of those that have a named target and a result. Over the whole deposit, 403 (1.9%) were called active. 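Unnormalised raw counts per well; ratio z-scores behind the hit calls and whether each hit raises or lowers signal are not deposited.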 A number with no mark means an inactive call. A plus sign joins genes that one reagent is predicted to hit. Reagent sequences are not shown. Not given: the amount of reagent.

Test: 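Knock-downs that raise or lower a Notch target reporter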 (primary screen)
System: Drosophila Kc167 cells
Reagent: long dsRNA against Drosophila genes
Time to read-out: about 5 days (4 days dsRNA, then 24 h after transfection)
Challenge: transfection of constitutively active membrane-tethered Notch lacking the extracellular domain, read 24 h later
Read-out: 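Firefly luciferase from an E(spl)m3 reporter with active Notch, plus control-promoter and uninduced reporter wells for normalisation; unnormalised counts, duplicate wells a and b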
Scale: induced reporter light, run 1, well a and induced reporter light, run 1, well b: higher = more light from the Notch target reporter with active Notch; control promoter light, run 1, well a and control promoter light, run 1, well b: higher = more light from the viral control promoter (cell number, transfection, viability); uninduced reporter light, run 1, well a: higher = more light from the Notch target reporter without active Notch
Call rule: 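Hit if the duplicate-averaged log2 ratio of induced to control-promoter light gives a plate-wise z beyond ±2, or induced to uninduced beyond ±1.8; weak-control or discordant-duplicate wells dropped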
Meaning of the calls: active = modifier hit (raised or lowered Notch signal); inactive = not a hit

gene	DRSC id	induced reporter light, run 1, well a	induced reporter light, run 1, well b	control promoter light, run 1, well a	control promoter light, run 1, well b	uninduced reporter light, run 1, well a
Pkg21D	DRSC00772	2.19e5	2.20e5	1.88e5	2.10e5	14925
CG10344	DRSC04066	2.22e5 (active)	1.96e5	1.36e5	1.51e5	13610
CG5111	DRSC15717	1.19e5	1.29e5	1.56e5	1.68e5	10370
Obp18a	DRSC19736	94150	92420	97240	1.32e5	11705
CG7914	DRSC20068	91325	86815	95035	1.02e5	11360
ND-B14	DRSC07029	1.41e5	1.53e5	2.18e5	2.42e5	15265
CG13377	DRSC18622	1.12e5	1.17e5	2.14e5	2.49e5	9310
lncRNA:sphinx + ATPsynF	DRSC17191	51005	66535	87840	79450	4615

Next part; the last 2 above are carried over.
gene	DRSC id	induced reporter light, run 1, well a	induced reporter light, run 1, well b	control promoter light, run 1, well a	control promoter light, run 1, well b	uninduced reporter light, run 1, well a
CG13377	DRSC18622	1.12e5	1.17e5	2.14e5	2.49e5	9310
lncRNA:sphinx + ATPsynF	DRSC17191	51005	66535	87840	79450	4615
SP1029	DRSC16848	1.41e5	1.42e5	1.67e5	1.48e5	11750
Jasper	DRSC16352	1.55e5	1.74e5	2.70e5	3.01e5	15715
PpD6	DRSC00774	1.61e5	1.52e5	1.80e5	1.62e5	10425
beta-Spec	DRSC20311	65585	73415	64120	44205	8815
HmgZ	DRSC03888	84080	79275	74310	85790	9010
HmgZ	DRSC04620	37535	39825	32090	37710	1930
CG7484	DRSC10853	1.60e5	1.45e5	1.35e5	1.48e5	5900
CG1299	DRSC08300	1.10e5	1.05e5	1.43e5	1.63e5	8032
ATP6 (retired record)	DRSC21278	86400	1.11e5	1.17e5	1.19e5	11028
ND-20L	DRSC15414	1.15e5	91385	1.43e5	1.58e5	10215
mthl6	DRSC10234	1.19e5	1.05e5	1.27e5	96800	6170
CG2247	DRSC19844	2.20e5	1.97e5	2.19e5	2.35e5	13030
